These are yes or no findings as the source states them, for the method shown. Binding seen in cells or lysates may run through a third protein. Some binding calls cover weakened binding; strength is not graded here.
T1: RING finger protein 180 (RNF180) (human (endogenous in LOVO and RKO)) (UniProt Q86T96)
T1 sequence: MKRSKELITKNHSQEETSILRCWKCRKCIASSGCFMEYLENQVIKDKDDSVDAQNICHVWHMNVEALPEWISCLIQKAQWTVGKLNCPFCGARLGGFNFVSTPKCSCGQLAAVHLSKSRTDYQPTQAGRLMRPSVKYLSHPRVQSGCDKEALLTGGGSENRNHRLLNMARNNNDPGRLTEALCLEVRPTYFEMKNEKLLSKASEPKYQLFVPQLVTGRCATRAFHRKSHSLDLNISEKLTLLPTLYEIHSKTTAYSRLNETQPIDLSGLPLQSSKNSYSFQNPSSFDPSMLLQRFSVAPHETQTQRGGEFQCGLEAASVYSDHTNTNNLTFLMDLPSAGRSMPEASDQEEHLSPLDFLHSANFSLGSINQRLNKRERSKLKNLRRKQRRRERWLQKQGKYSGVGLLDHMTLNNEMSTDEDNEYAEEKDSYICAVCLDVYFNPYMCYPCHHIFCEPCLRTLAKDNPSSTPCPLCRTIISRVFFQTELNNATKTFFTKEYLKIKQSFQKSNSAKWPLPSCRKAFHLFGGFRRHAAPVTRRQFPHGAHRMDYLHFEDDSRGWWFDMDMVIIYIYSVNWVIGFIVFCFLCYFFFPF

T2: WNT1 inducible signaling pathway protein 1 (WISP1) (human (endogenous in LOVO and RKO)) (UniProt O95388)
T2 sequence: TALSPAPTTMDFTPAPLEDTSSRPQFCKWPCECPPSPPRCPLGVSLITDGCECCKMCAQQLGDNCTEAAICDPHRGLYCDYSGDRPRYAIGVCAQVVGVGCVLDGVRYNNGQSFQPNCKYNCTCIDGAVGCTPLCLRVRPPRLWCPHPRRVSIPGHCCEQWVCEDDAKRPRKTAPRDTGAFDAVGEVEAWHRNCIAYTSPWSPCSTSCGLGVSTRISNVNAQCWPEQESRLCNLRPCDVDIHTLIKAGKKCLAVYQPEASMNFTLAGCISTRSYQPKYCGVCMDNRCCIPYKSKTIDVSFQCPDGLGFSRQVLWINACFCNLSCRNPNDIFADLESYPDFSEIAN

B1: WNT1 inducible signaling pathway protein 1 (WISP1) (protein, UniProt O95388 23-367)
chain: T2 sequence
B2: RING finger protein 180 (RNF180) (enzyme, UniProt Q86T96 1-592)
chain: T1 sequence

What was measured:
[1] = biological target: T1, RING finger protein 180 (RNF180) (human (endogenous in LOVO and RKO)); experiment: co-IP; LOVO and RKO cell lysates (RIPA buffer) with anti-RNF180, anti-WISP1 or normal IgG at 4°C overnight, Protein A/G PLUS-Agarose beads; immunoblot with anti-RNF180 and anti-WISP1
[2] = biological target: T2, WNT1 inducible signaling pathway protein 1 (WISP1) (human (endogenous in LOVO and RKO)); experiment: as above

| Binder | binding [1] | binding [2] |
| --- | --- | --- |
| B1 | binds |  |
| B2 |  | binds |

— paper PMC7862563
